Experiment [1] has as its target T1, mouse ICOS (full length, on cells) (mouse, UniProt Q9WVS0 21-200).
T1 construct: also called CHO-mICOS; mouse ICOS+ CHO cells
T1 sequence: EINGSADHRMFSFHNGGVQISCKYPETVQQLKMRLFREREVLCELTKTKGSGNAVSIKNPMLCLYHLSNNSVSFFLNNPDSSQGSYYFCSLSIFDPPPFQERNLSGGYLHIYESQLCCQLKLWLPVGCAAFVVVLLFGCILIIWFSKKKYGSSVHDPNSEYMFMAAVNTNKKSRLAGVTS
Nature of the experiment: receptor availability assay, flow cytometry on blood T cells of dosed mice.

Experiment [2] addresses T2, cynomolgus ICOS-Fc (homodimeric, bivalent) (cynomolgus monkey).
T2 sequence: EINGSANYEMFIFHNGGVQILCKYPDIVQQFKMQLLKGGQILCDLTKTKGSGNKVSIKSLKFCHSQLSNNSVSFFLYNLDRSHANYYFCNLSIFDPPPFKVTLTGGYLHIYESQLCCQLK
Nature of the experiment: BLI. (In general: In BLI a coated tip is dipped into the sample, and binding shifts an interference pattern.)

Another experiment deals with T3, rat ICOS-Fc (rat) (UniProt Q9R1T7).
T3 sequence: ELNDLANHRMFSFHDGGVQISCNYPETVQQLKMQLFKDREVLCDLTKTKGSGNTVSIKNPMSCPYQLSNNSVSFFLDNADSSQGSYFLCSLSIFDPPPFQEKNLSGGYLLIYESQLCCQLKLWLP
Nature of the experiment: BLI.

These are yes or no findings as the source states them, for the method shown. Some results given as binding are weak or reduced against the parent protein; the word gives no strength. For some of these results: Sequences can lack the tags named with a protein.

B1: 37A10S713-mIgG2a (antibody, V domains shown)
VH: EVQLVESGGGLVQPGGSLRLSCAASGFTFSDYWMDWVRQAPGKGLVWVSNIDEDGSITEYSPFVKGRFTISRDNAKNTLYLQMNSLRAEDTAVYYCTRWGRFGFDSWGQGTLVTVSS
VL: DIVMTQSPDSLAVSLGERATINCKSSQSLLSGSFNYLTWYQQKPGQPPKLLIFYASTRHTGVPDRFSGSGSGTDFTLTISSLQAEDVAVYYCHHHYNAPPTFGPGTKVDIK
With B1, the binding entry in experiment [1] is “binds”.

B2: 7F12 (antibody, V domains shown)
VH: EVQLVESGGGLVKPGGSLTLSCAASGFTFSDYWMDWVRQGPGKGLEWVGNIDEDGSTTYYAPFVKGRFTISRDNAKKTLYLQMNSVKSEDTATYYCTRWGRYAFDSWGQGTLVTVSS
VL: DIVMTQSPSSLAVSPGDKVTINCKSSQSLLSGNYNYLAWYQQKTGQAPKLLIFYASTRHTGVPDRFMGSGSGTDFSLTINSFQTEDLGDYYCQHHYSTPPTFGPGTKLEIK
notes: Armenian hamster monoclonal tested as IgG; also called hamster anti-ICOS 7F12
As for B2, the binding result (in experiment [2]; with rat ICOS-Fc (rat)) was “binds” throughout.

B3: 37A10 (antibody, V domains shown)
VH: EVQLVESGGGLVKPGGSLKLSCAASGFTFSDYWMDWVRQAPGKGLEWVGNIDEDGSITEYSPFVKGRFTISRDNVKNTLYLQMNSVKSEDTATYYCTRWGRFGFDSWGQGTLVTVSS
VL: DIVMTQSPSSLAVSAGDRVTINCKSSQSLLSGSFNYLTWYQQKTGQAPKLLIFYASTRHTGVPDRFMGSGSGTDFTLTINSFQTEDLGDYYCHHHYNAPPTFGPGTKLELR
notes: Armenian hamster monoclonal tested as IgG; also called hamster anti-ICOS 37A10
B3: the binding result with rat ICOS-Fc (rat) is given as “binds”.

B4: 16G10 (antibody, V domains shown)
VH: EVQLVESGGGLVKPGGSLKLSCAASGFTFSDYWMDWVRQAPGKGLEWVGNIDHDGNIINFAPSVKGRFTISRDNAKNTLYLQMNSVKSEDTATYYCARWGHYAFDSWGQGTLVTVSS
VL: DIVMTQSPSSLAVSAGDKVTINCKSSQSLLSSGYNYLIWYQQKTGQAPKLLIFYASTRHTGVPDRFIGSGSGTDFTLTITSFQTEDLGDYYCQHHYSSPPTFGPGTKLEIK
notes: Armenian hamster monoclonal tested as IgG; also called hamster anti-ICOS 16G10
For the molecule B4, the binding result (in experiment [2]; in the experiment with rat ICOS-Fc (rat)) was “binds” throughout.

B5: 36E10 (antibody, V domains shown)
VH: EVQLVESGGGLVKPGGSLKLSCAASGFTFSDYWMDWVRQAPGKGLEWVGNIDEDGSITEYSPFVKGRFTISRDNVKNILYLQMNSVKSEDTATYYCTRWGRFAFDSWGQGTLVTVSS
VL: DIVMTQSPSSLAVSPGDRVTINCKSSQSLLSGSFHYLTWYQQKTGQAPKLLIFYASTRHTGVPDRFMGSGSGTDFTLTINSFQTEDLGDYYCHHHYNAPPTFGPGTKLELR
notes: Armenian hamster monoclonal tested as IgG; also called hamster anti-ICOS 36E10
Consider B5, for which the binding entry (in experiment [2]; with rat ICOS-Fc (rat)) was “binds” throughout.

B6: 35A9 (antibody, V domains shown)
VH: EVQLVESGGGLVKPGGSLKLSCAASGFTFSDYWMDWVRQAPGKGLEWVGNIDEDGSIAEYSPFVKGRFTISRDNVKNTLYLQMNSVKSEDTATYYCSRWGRFAFDSWGQGTLVTVSS
VL: DIVMTQSPSSLAVSAGDRVTINCKSSQSLLSGSFNYLTWYQQKTGQAPKLLIFYASTRHTGVPDRFMGSGSGTDFTLTINSFQTEDLGDYYCHHHYNAPPTFGPGTKLELR
notes: Armenian hamster monoclonal tested as IgG; also called hamster anti-ICOS 35A9
Consider B6, for which the binding result (in experiment [2]; with rat ICOS-Fc (rat)) was “binds” each time.

The values above are taken from patent publication US20180371091A1 (JOUNCE THERAPEUTICS, published 2018).
